Assay results: patent publication US20100113613A1, “CYCLOHEXANE POLYALCOHOL FORMULATION FOR TREATMENT OF DISORDERS OF PROTEIN AGGREGATION” (WARATAH PHARMACEUTICALS, priority 2006, published 2010)

Assays:
[1] = for CSF myo-inositol concentration in comparison to untreated controls: mice, ad libitum in drinking water 10 mg/ml, P=0.35 (myo) and 0.7 (scyllo)
[2] = Brain and CSF levels of inositols after one month ad libitum dosing (GC/MS), Example 2; format: in vivo; conditions: TgCRND8 mice
Experimental: Study drugs were administered either at 30 mg/kg by oral gavage, or ad libitum by dissolution in drinking water. For administration in drinking water, study drugs were dissolved at 10 mg/ml. The average amount of water taken from the bottle was 3 ml daily per animal. The average mouse weight was 33 g. […] Quantification of scyllo-cyclohexanehexyl and myo-inositol. Scyllo-cyclohexanehexyl and myo-cyclohexanehexyl levels in the brain and CSF were analyzed using gas chromatography/mass spectrometry. D-chiro-inositol was used as an internal control, as it is not present in these biological samples. Derivatization: To increase the volatility and thermal stability of these compounds and to allow for proper peak separation, these samples need to first be derivatized. The derivatization was adapted from a method presented previously (Shetty, H U, et al, 1995, Anal. Biochem. 224:279-85), where the hydroxyl groups of the cyclohexanehexyl were replaced with acetyl groups. […] Similarly, a 5-15 μl sample of CSF was mixed with 1 ml of methanol and allowed to stand at room temperature for 5 minutes. The resulting suspension was centrifuged (5 min, 5000×g) and the supernatant transferred to a glass tube (Teflon-lined cap). […] These samples were then evaporated to complete dryness (Speedvac; 60° C.). […] This mixture was flushed with dry nitrogen, securely capped and the tubes heated (80° C.; 30 min). Following derivatization, samples were cooled (RT) and the unreacted acetylating reagent evaporated using a steady stream of nitrogen gas. The derivatized products were re-dissolved (4 ml; hexane-ethyl acetate (80:20, v/v)) and washed with 1 ml of 5% sodium hydrogencarbonate solution. […] The residue was reconstituted in 100 μl; ethyl acetate. 1 μL of this was injected into the GC/MS system. A similar procedure was followed using stock concentrations of scyllo- and myo-cyclohexanehexols, which were then used to generate concentration curves (in this case the internal standard was derivatized separately and then added). GC/MS was performed using a Perkin Elmer TurboMass Autosystem XL, with a quadrupole mass spectrometer and electron ionization. Gas chromatography was performed using a 30 m×0.25 mm×0.25 μm ZB 5 (5% diphenyl/95% dimethylpolysiloxane) column, using the carrier gas Helium (1 ml/min). Samples were injected with the split set to 50 at 1 min and 0 at 5 min, the injector temperature was set at 300° C. and an initial oven temperature of 80° C. After a hold of 1 min, the temperature was ramped at 45° C./min to 187° C. and held there for 15 min. […] Sample peaks were analyzed using selected-ion monitoring, using m/z 168 for determining cyclohexanehexyl levels in the brain and CSF and m/z 373 for determining cyclohexanehexyl levels in plasma, as monitoring the larger ion reduced noise. […]

[3] = system: phosphatidylinositol lipids; test: Incorporation into phosphatidylinositol lipids within the brain, Example 2; format: in vivo; conditions: TgCRND8 mice, ad libitum dosing for one month

## OC1C(O)C(O)C(O)C(O)C1O (stereo not shown) [AZD-103, scyllo-inositol]
[1]
  CSF myo-inositol concentration in comparison to untreated controls: did not significantly alter
[1]; scyllo-inositol ad libitum treatment, P<0.001
  decrease in myo-inositol in the brain: 0.7 fold

## O[C@H]1[C@H](O)[C@@H](O)[C@H](O)[C@@H](O)[C@H]1O [myo-inositol, reference compound]
[2]; myo-cyclohexanehexyl ad libitum for one month
  CSF levels of scyllo-cyclohexanehexyl vs untreated: not significantly different from untreated animals
[2]; myo-cyclohexanehexyl ad libitum for one month, p=0.008
  levels of scyllo-cyclohexanehexyl in brain, lower than untreated: 80%
[1]
  CSF myo-inositol concentration in comparison to untreated controls: did not significantly alter
[1]; myo-inositol ad libitum treatment, P=0.008
  decrease in brain scyllo-inositol levels: 5.4 fold

## scyllo-inositol [AZD-103]
[2]; scyllo-cyclohexanehexyl ad libitum for one month, p<0.001
  decrease of myo-cyclohexanehexyl level in brain vs untreated: 30%
[2]; scyllo-cyclohexanehexyl ad libitum for one month, p=0.7
  CSF levels of myo-cyclohexanehexyl vs untreated: not significantly different from untreated animals
[3]
  incorporation into phosphatidylinositol lipids of the brain: No scyllo-cyclohexanehexyl was incorporated into the lipids
  levels of chiro- and myo-cyclohexanehexyl in the phosphatidylinositol lipids: unaffected
